Reference: US9643952B2, “Pyridone compound” (KYOWA HAKKO KIRIN CO., LTD., priority 2012, dated 2017)
Some of these results come from one statement about several compounds together.

Target: T1, human CCR10 (Homo sapiens, UniProt P46092)
T1 construct: expressed in transfected cells; host or cells: KJMGER8 cells (Namalwa cell-derived cell line); expression induced with 10 nmol/L beta-estradiol for 24 hr
T1 sequence (P46092 1-362): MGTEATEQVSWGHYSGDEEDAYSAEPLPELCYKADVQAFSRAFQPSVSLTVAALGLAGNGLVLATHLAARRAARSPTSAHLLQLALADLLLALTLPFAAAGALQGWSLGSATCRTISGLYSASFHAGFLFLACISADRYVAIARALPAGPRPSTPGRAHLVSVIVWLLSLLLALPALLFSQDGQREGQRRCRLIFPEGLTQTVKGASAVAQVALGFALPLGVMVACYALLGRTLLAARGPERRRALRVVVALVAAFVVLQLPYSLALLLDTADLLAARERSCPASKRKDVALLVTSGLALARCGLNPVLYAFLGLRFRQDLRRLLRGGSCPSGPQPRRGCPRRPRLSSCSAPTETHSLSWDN
Experiment: Calcium assay of human CCR10 (CCR10 antagonistic effect, CTACK-induced increase of intracellular calcium ion concentration in hCCR10G16 cells)
Assay type: cell-based
Conditions: human CCR10-expressing hCCR10G16 cells, 300 nmol/L human recombinant CTACK, Fluo-3, FDSS; read-out: concentration at which the increase in the calcium ion concentration is inhibited by not less than 50%

SMILES	IC50 [nM]
COC(CCn1cc(C(=O)N2CCC(c3ccc(F)cc3)CC2)c(Nc2cc(C)ccc2Cl)cc1=O)OC [Compound 11, 4-(2-chloro-5-methylphenylamino)-1-(3,3-dimethoxypropyl)-5-[4-(4-fluorophenyl)piperidine-1-carbonyl]pyridin-2(1H)-one]	≤ 1000
Cc1cc(F)ccc1Nc1cc(=O)n(CC(=O)O)cc1C(=O)N1CCC(c2ccc(F)cc2)CC1 [Compound 26, 2-{4-(4-fluoro-2-methylphenylamino)-5-[4-(4-fluorophenyl)piperidine-1-carbonyl]-2-oxopyridin-1(2H)-yl}acetic acid]	≤ 1000
COc1ccc(Nc2c(C(=O)N3CCC(c4ccc(F)cc4)CC3)cn(C)c(=O)c2Cl)cc1 [Compound 44, 3-chloro-5-[4-(4-fluorophenyl)piperidine-1-carbonyl]-4-(4-methoxyphenylamino)-1-methylpyridin-2(1H)-one]	≤ 1000
Cc1ccc(Cl)c(Nc2cc(=O)n(CCCC#N)cc2C(=O)N2CCC(c3ccc(F)cc3)CC2)c1 [Compound 19, 4-{4-(2-chloro-5-methylphenylamino)-5-[4-(4-fluorophenyl)piperidine-1-carbonyl]-2-oxopyridin-1(2H)-yl}butanenitrile]	≤ 1000
Cc1ccc(Cl)c(Nc2cc(=O)n(Cc3c(C)noc3C)cc2C(=O)N2CCC(c3ccc(F)cc3)CC2)c1 [Compound 10, 4-(2-chloro-5-methylphenylamino)-1-[(3,5-dimethylisoxazol-4-yl)methyl]-5-[4-(4-fluorophenyl)piperidine-1-carbonyl]pyridin-2(1H)-one]	≤ 1000
Cc1cc(F)ccc1Nc1c(C(=O)N2CCC(c3ccc(F)cc3)CC2)cn(CC2CC2)c(=O)c1F [Compound 38, 1-(cyclopropylmethyl)-3-fluoro-4-(4-fluoro-2-methylphenylamino)-5-[4-(4-fluorophenyl)piperidine-1-carbonyl]pyridin-2(1H)-one]	≤ 1000
Cc1cc(F)ccc1Nc1cc(=O)n(Cc2nccn2C)cc1C(=O)N1CCC(c2ccc(F)cc2)CC1 [Compound 27, 4-(4-fluoro-2-methylphenylamino)-5-[4-(4-fluorophenyl)piperidine-1-carbonyl]-1-[(1-methyl-1H-imidazol-2-yl)methyl]pyridin-2(1H)-one]	≤ 1000
Cc1ccc(Cl)c(Nc2cc(=O)n(CC3CCC3)cc2C(=O)N2CCC(c3ccc(F)cc3)CC2)c1 [Compound 8, 4-(2-chloro-5-methylphenylamino)-1-(cyclobutylmethyl)-5-[4-(4-fluorophenyl)piperidine-1-carbonyl]pyridin-2(1H)-one]	≤ 1000
Cn1cc(C(=O)N2CCC(c3ccc(F)cc3)CC2)c(Nc2ccc(C#N)cc2)c(Cl)c1=O [Compound 62, 4-{3-chloro-5-[4-(4-fluorophenyl)piperidine-1-carbonyl]-1-methyl-2-oxo-1,2-dihydropyridin-4-ylamino}benzonitrile]	≤ 1000
COCCCn1cc(C(=O)N2CCC(c3ccc(F)cc3)CC2)c(Nc2cc(C)ccc2Cl)cc1=O [Compound 6, 4-(2-chloro-5-methylphenylamino)-5-[4-(4-fluorophenyl)piperidine-1-carbonyl]-1-(3-methoxypropyl)pyridin-2(1H)-one]	≤ 1000
Cn1cc(C(=O)N2CCC(c3ccc(F)cc3)CC2)c(Nc2ccc(F)cc2F)c(Cl)c1=O [Compound 54, 3-chloro-4-(2,4-difluorophenylamino)-5-[4-(4-fluorophenyl)piperidine-1-carbonyl]-1-methylpyridin-2(1H)-one]	≤ 1000
Cc1cc(Cl)ccc1Nc1cc(=O)n(C)cc1C(=O)N1CCC(c2ccc(F)cc2)CC1 [Compound 37, 4-(4-chloro-2-methylphenylamino)-5-[4-(4-fluorophenyl)piperidine-1-carbonyl]-1-methylpyridin-2(1H)-one]	≤ 1000

Next, values leading:

IC50 [nM]	SMILES
≤ 1000	Cn1cc(C(=O)N2CCC(c3ccc(F)cc3)CC2)c(Nc2ccc3ocnc3c2)c(Cl)c1=O [Compound 196, 4-(benzo[d]oxazol-5-ylamino)-3-chloro-5-[4-(4-fluorophenyl)piperidine-1-carbonyl]-1-methylpyridin-2(1H)-one]
≤ 1000	Cc1cc(C)c(Nc2c(C(=O)N3CCC(c4ccc(F)cc4)CC3)cn(C)c(=O)c2Cl)cn1 [Compound 209, 3-chloro-4-(4,6-dimethylpyridin-3-ylamino)-5-[4-(4-fluorophenyl)piperidine-1-carbonyl]-1-methylpyridin-2(1H)-one]
≤ 1000	Cc1ccccc1Nc1c(C(=O)N2CCC(c3ccc(F)cc3)CC2)cn(C)c(=O)c1[N+](=O)[O-] [Compound 222, 5-[4-(4-fluorophenyl)piperidine-1-carbonyl]-1-methyl-3-nitro-4-(o-tolylamino)pyridin-2(1H)-one]
≤ 1000	Cc1cc(F)ccc1Nc1c(C(=O)N2CCC(c3ccc(F)cc3)CC2)cn(CC2CC2)c(=O)c1Cl [Compound 85, 3-chloro-1-(cyclopropylmethyl)-4-(4-fluoro-2-methylphenylamino)-5-[4-(4-fluorophenyl)piperidine-1-carbonyl]pyridin-2(1H)-one]
≤ 1000	CSc1ccc(Nc2c(C(=O)N3CCC(c4ccc(F)cc4)CC3)cn(C)c(=O)c2Cl)c(F)c1 [Compound 128, 3-chloro-4-[2-fluoro-4-(methylthio)phenylamino]-5-[4-(4-fluorophenyl)piperidine-1-carbonyl]-1methylpyridin-2(1H)-one]
≤ 1000	Cn1cc(C(=O)N2CCC(c3ccc(F)cc3)CC2)c(Nc2ccc(F)cc2C#N)c(Cl)c1=O [Compound 150, 2-{3-chloro-5-[4-(4-fluorophenyl)piperidine-1-carbonyl]-1-methyl-2-oxo-1,2-dihydropyridin-4-ylamino}-5-fluorobenzonitrile]
≤ 1000	Cc1cc(C#N)ccc1Nc1c(C(=O)N2CCC(c3ccc(F)cc3)CC2)cn(OCc2ccccn2)c(=O)c1C [Compound 230, 4-{5-[4-(4-fluorophenyl)piperidine-1-carbonyl]-3-methyl-2-oxo-1-(pyridin-2-ylmethoxy)-1,2-dihydropyridin-4-ylamino}-3-methylbenzonitrile]
≤ 1000	COc1ccc(Nc2c(C(=O)N3CCC(c4ccc(F)cc4)CC3)cn(C)c(=O)c2Cl)cc1F [Compound 92, 3-chloro-4-(3-fluoro-4-methoxyphenylamino)-5-[4-(4-fluorophenyl)piperidine-1-carbonyl]-1-methylpyridin-2(1H)-one]
≤ 1000	Cc1ccc(Cl)cc1Nc1c(C(=O)N2CCC(c3ccc(F)cc3)CC2)cn(Cc2ccccn2)c(=O)c1Cl [Compound 163, 3-chloro-4-(5-chloro-2-methylphenylamino)-5-[4-(4-fluorophenyl)piperidine-1-carbonyl]-1-(pyridin-2-ylmethyl)pyridin-2(1H)-one]
≤ 1000	Cn1cc(C(=O)N2CCC(c3ccc(F)cc3)CC2)c(Nc2ccc3nn[nH]c3c2)c(Cl)c1=O [Compound 177, 4-(1H-benzo[d][1,2,3]triazol-6-ylamino)-3-chloro-5-[4-(4-fluorophenyl)piperidine-1-carbonyl]-1-methylpyridin-2(1H)-one]
≤ 1000	COCCn1cc(C(=O)N2CCC(c3ccc(F)cc3)CC2)c(Nc2cc(Cl)ccc2C)c(Cl)c1=O [Compound 142, 3-chloro-4-(5-chloro-2-methylphenylamino)-5-[4-(4-fluorophenyl)piperidine-1-carbonyl]-1-(2-methoxyethyl)pyridin-2(1H)-one]
≤ 1000	COc1ccc(Nc2c(C(=O)N3CCC(c4ccc(F)cc4)CC3)cn(Cc3cccnc3)c(=O)c2Cl)c(C)c1 [Compound 154, 3-chloro-5-[4-(4-fluorophenyl)piperidine-1-carbonyl]-4-(4-methoxy-2-methylphenylamino)-1-(pyridin-3-ylmethyl)pyridin-2(1H)-one]
≤ 1000	Cc1ccc(Cl)cc1Nc1c(C(=O)N2CCC(c3ccc(F)cc3)CC2)cn(Cc2nnn[nH]2)c(=O)c1Cl [Compound 170, 1-[(1H-tetrazol-5-yl)methyl]-3-chloro-4-(5-chloro-2-methylphenylamino)-5-[4-(4-fluorophenyl)piperidine-1-carbonyl]pyridin-2(1H)-one]
≤ 1000	Cn1cc(C(=O)N2CCC(c3ccc(F)cc3)CC2)c(Nc2ccc3ncsc3c2)c(N)c1=O [Compound 197, 3-amino-4-(benzo[d]thiazol-6-ylamino)-5-[4-(4-fluorophenyl)piperidine-1-carbonyl]-1-methylpyridin-2(1H)-one]
≤ 1000	Cc1ccc(Cl)cc1Nc1c(C(=O)N2CCC(c3ccc(F)cc3)CC2)cn(CCN2CCOCC2)c(=O)c1Cl [Compound 185, 3-chloro-4-(5-chloro-2-methylphenylamino)-5-[4-(4-fluorophenyl)piperidine-1-carbonyl]-1-(2-morpholinoethyl)pyridin-2(1H)-one]
≤ 1000	Cn1ncc2ccc(Nc3c(C(=O)N4CCC(c5ccc(F)cc5)CC4)cn(CCF)c(=O)c3Cl)cc21 [Compound 203, 3-chloro-1-(2-fluoroethyl)-5-[4-(4-fluorophenyl)piperidine-1-carbonyl]-4-(1-methyl-1H-indazol-6-ylamino)pyridin-2(1H)-one]
≤ 1000	Cn1cc(C(=O)N2CCC(c3ccc(F)cc3)CC2)c(Nc2cc(Cl)ccc2F)c(Cl)c1=O [Compound 119, 3-chloro-4-(5-chloro-2-fluorophenylamino)-5-[4-(4-fluorophenyl)piperidine-1-carbonyl]-1-methylpyridin-2(1H)-one]
